Measured values: PubChem BioAssay AID1347076 (National Center for Advancing Translational Sciences (NCATS), 2019)
Hit rate of the full screen: of about 400,000 compounds, about 13,000 (3.2%) were called active. Inconclusive means that the source gave no clear call. Such entries were picked first, then a sample of the others. Calls come from the whole dose curve; as a rule, active = well fitted cell-killing curve with a large enough effect; inconclusive = small, poorly fitted or top-dose-only effect, or effect the other way; inactive = flat fitted curve, though single readings scatter. Potencies of inconclusive entries are doubtful fits and often do not repeat.

assay: qHTS assay for MDR1-selective chemotherapeutics: Primary screen using the drug-selected MDR subline cells KB-V1; conditions: KB-V1 MDR cells viability, CellTiter-Glo, 72 h; activity change, negative = cytotoxicity: at 46.1 µM (top of the series); note: nearly all actives have a fitted effect of over 60% in size
Outline: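 KB-V1 cells (P-gp-expressing MDR subline of KB-3-1) in phenol-red-free DMEM with 10% FBS were exposed to library compounds over a concentration series for 72 h at 37 degrees C. Viability read by CellTiter-Glo luminescence; concentration-effect curves fitted after normalization.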
% is set by controls: 0 for no effect and ±100 for the full control effect; potency is the fitted concentration of half-maximal effect.

Row | Structure (SMILES) | activity change, negative = cytotoxicity | Potency
1 | O=c1cc(-c2ccc(O)c(O)c2)oc2c1ccc1ccccc12 | inactive: -6.47% | 
2 | O=C1CCCC2=C1C1(CCCC1)N=C(Nc1nc3cc4ccccc4cc3o1)N2 | inactive: 2.26% | 
3 | COCCCNC(=O)c1c(N)n(/N=C/c2ccccn2)c2nc3ccccc3nc12 |  | active: 5.17 µM
4 | O=C(O)CCCn1c(O)c(C=C2N=c3ccccc3=N2)sc1=S | inactive: 0% | 
5 | CCCCOCCCNC(=O)C[C@@H]1C[C@@]2(C(=O)OC)CCCCC=C2N(CCC2=CCCCC2)C1=O |  | inconclusive: 16.4 µM [cytotoxic, partial curve, poor fit]
6 | Cc1c(C(=O)N2CCC(C(N)=O)CC2)oc2ccc(Br)cc12 | inactive: 7.3% | 
7 | CC(C)OCCCNc1ncnc2c1cnn2-c1ccccc1 |  | active: 14.6 µM
8 | CCNC(=O)C1(C)CCCN(C(=O)c2ccc3ccccc3n2)C1 (centres undefined) | inactive: 5.07% | 
9 | Cn1nnc(NC(=O)c2cccc(F)c2)n1 | inactive: 3.91% | 
10 | Cc1c(C(=O)Nc2ccccc2Cl)oc2ccc(S(=O)(=O)N3CCCCCC3)cc12 | inactive: 15.4% | 
11 | Nc1ccc(-n2nc3ccccc3n2)cc1 |  | inconclusive: 29.1 µM [rising, single point]
12 | Cc1ccc(S(=O)(=O)NC(C(=O)OCC(=O)NC(=O)c2cccn2C)C(C)C)cc1 (centres undefined) | inactive: 1.26% | 
13 | Cc1cccc(N2CCN(C(=O)c3cccc(-n4c(C)nc5cccnc54)c3)CC2C)c1 (centres undefined) | inactive: -22.4% | 
14 | COc1cc(NC(=O)CN2CCC(Cc3ccccc3)CC2)c(C)cc1[N+](=O)[O-] | inactive: 1.47% | 
15 | Cc1ccccc1C(=O)c1cccn1CC(=O)NCCCc1ccccc1 | inactive: 2.56% | 
16 | CC(C)(C)OC(=O)C[C@@H]1C/C=C\C[C@H](CC(=O)N(CCO)Cc2ccccc2)C(=O)N[C@@H](Cc2ccccc2)COC1=O | inactive: 10.2% | 
17 | COc1ccc(C2NC(=S)NC(C)=C2C(=O)Nc2ccccn2)cc1OC (centres undefined) | inactive: 0.879% | 
18 | Cc1ccc(C2=NN(C(=O)CCC(=O)O)C(c3cn(-c4ccccc4)nc3-c3ccc(C)cc3)C2)cc1 (centres undefined) | inconclusive: 31.6% | 
19 | CSc1cccc(NC(=O)N2CCN(C)CC2)c1 | inconclusive: -1.85% | 
20 | CCN(C(=O)c1cc(S(=O)(=O)N2CCCC2)ccc1C)C1CCS(=O)(=O)C1 (centres undefined) |  | inconclusive: 29.1 µM [rising, single point]
21 | COc1ccc(OC)c(CCNc2ncnc3onc(C)c23)c1 | inactive: -13.5% | 
22 | O=C(COc1ccc([N+](=O)[O-])cc1)N/N=C/c1cc([N+](=O)[O-])ccc1N1CCOCC1 |  | active: 16.4 µM
23 | CCOC(=O)c1sc2nc(OCc3cccnc3)cc(C)c2c1N |  | inconclusive: 23.1 µM [cytotoxic, partial curve]
24 | CC(=O)c1c(C)[nH]c(C(=O)OCc2ccc(Br)cc2)c1C |  | active: 6.51 µM

Complete entries, quoted from the list:
COCCCNC(=O)c1c(N)n(/N=C/c2ccccn2)c2nc3ccccc3nc12 as listed: Potency: active: 5.17 µM
CCN(C(=O)c1cc(S(=O)(=O)N2CCCC2)ccc1C)C1CCS(=O)(=O)C1 (centres undefined) as listed: Potency: inconclusive: 29.1 µM [rising, single point]
